PMC7862700
The entries are a selection whose mix differs from that of the whole data set. At the low end of the ranking the order means little.

biological target: SPI1 (UniProt P17947); test: DAPPL (digital affinity profiling via proximity ligation, sequencing); settings: 10 mM Tris-HCl pH 7.5, 50 mM NaCl, 1 mM DTT, 4% glycerol, room temperature, 30 min; GST-TFs on glutathione beads, 16-mer random dsDNA library, 0.1% …; high values mean tight binding; double strand, one strand shown; scale: fold enrichment (6-mer frequency, TF over GST control)

Row | Sequence | binding signal
1 | TCTAGG | 0.996
2 | CGCGTA | 0.951
3 | CATAAG | 0.937
4 | GCCTGG | 0.878
5 | GTCCCA | 1.13
6 | CACGTT | 1.3
7 | GGATGG | 0.868
8 | CTATTG | 1.26
9 | TCAAGA | 0.886
10 | TATGAG | 0.954
11 | ACCTGA | 1.01
12 | TGAAAT | 1.02
13 | TAGCGT | 0.984
14 | GCCAGA | 0.646
15 | AGAAGG | 0.715
16 | CCAGCT | 0.982
17 | TAATTC | 1.33
18 | TAGCGA | 0.981
19 | GTTGGC | 0.939

Row | Sequence | binding signal
20 | CCAAAC | 1.06
21 | TTAGTG | 0.786
22 | GGCGTT | 1.03
23 | GCCGCA | 0.943
24 | CATTGG | 0.967
25 | ACAAAA | 1.22
26 | CGGTTT | 1.44
27 | GGAAGA | 1.17
28 | TGAGCT | 0.978
29 | TCCTGA | 1.47
30 | GACCAA | 0.887
31 | CTTGAG | 0.824
32 | TAAGTC | 0.873
33 | TCAAGG | 0.988
34 | ATATCC | 2.43
35 | AATTCG | 1.13
36 | AATCGT | 0.839
37 | TTCCCA | 1.28
38 | CAAGAA | 1.06

Numbers 21–23 from above:
Row | Sequence | binding signal
21 | TTAGTG | 0.786
22 | GGCGTT | 1.03
23 | GCCGCA | 0.943
